Measurements taken from PubChem BioAssay AID624297 (National Center for Advancing Translational Sciences (NCATS), 2012).
About 6,200 (1.8%) of roughly 340,000 compounds were called active. The inconclusive results got no clear call from the source; some entries with a clear call stand among them for comparison. Calls come from the whole dose curve; as a rule, active = well fitted activation curve with a large enough effect; inconclusive = small, poorly fitted or top-dose-only effect; inactive = no such curve, though single readings can be large or run the other way. Potencies beside an inconclusive call are fits to weak or partial responses and may not hold up.

Assay: A quantitative high throughput screen for small molecules that induce DNA re-replication in SW480 colon adenocarcinoma cells. For re-replication activation: % of control where 0% means no effect. Note: nearly all actives have a fitted effect of over 55% in size.
Conditions: Hoechst DNA content imaging, 48 h; re-replication activation: at 46.1 µM (top of the series) unless noted
Method in brief: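 250 cells/well; 23 nL cpd via pin tool; 48 hr, 37 C, 5% CO2; Hoechst 40 min; imager read of total nuclear intensity, ex 405/em 500-530 nm.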
Potency is the fitted concentration of half-maximal effect.

Row | SMILES | Potency | re-replication activation
1 | Nc1nnc(N2CCCCC2)s1 | inactive | –
2 | O=C(Nc1ccc([N+](=O)[O-])cc1)c1cn(-c2ccccc2)nc1-c1cc2ccccc2o1 | inactive | –
3 | COc1cnn(-c2ccc(C)cc2)c(=O)c1Cl | inconclusive: 20.6 µM [activator, single point] | –
4 | Cc1ccc(-c2csc(NC(=O)CCNC(=O)c3ccc(Cl)cc3)n2)cc1 | inconclusive: 13 µM [activator, single point] | –
5 | C[C@@H](C(=O)Nc1ccc2ccccc2c1)[C@H]1C[C@]1(C)[C@H](NP(=O)(c1ccccc1)c1ccccc1)c1ccccc1 | active: 23.1 µM | –
6 | Cc1[nH]cnc1C(=O)N/N=C/c1ccc([N+](=O)[O-])s1 | inconclusive: 18.4 µM [activator, single point] | –
7 | CCOC(=O)CCc1c(C)c2ccc3c(c2oc1=O)CN(CCCO)CO3 | inconclusive: 9.2 µM [activator, single point] | –
8 | Cc1nn2c(CN(C(=O)COc3ccccc3)c3ccccc3)nnc2c2ccccc12 | inactive | –
9 | CN1OC[C@@H]2CN[C@H](c3cccc(-c4ccccc4)c3)C[C@@H]21 | – | inactive: 11.7% [at 9.22 µM]
10 | NC(=O)[C@@H]1CC2(CC(c3cccc(NC(=O)COc4ccc(Cl)cc4)c3)=NO2)CN1C(=O)COc1ccc(Cl)cc1 (some centres undefined) | inconclusive: 0.146 µM [activator, partial curve, poor fit] | –
11 | COc1cc(C(=O)Nc2ccc3c(c2)N(C(=O)CCN(C)C)c2ccccc2CC3)cc(OC)c1OC | inconclusive: 18.4 µM [activator, single point] | –
12 | CCc1ccc(NC(=O)N(CCN2CCOCC2)Cc2ccc3c(c2)CCCN3CC)cc1 | inactive | –
13 | S=C(NCC1CCCO1)NC1CC1 (centres undefined) | inconclusive: 3.26 µM [activator, partial curve, poor fit] | –
14 | Cc1ccc(O)c(C(=O)C=Cc2ccccc2)c1 | inconclusive: 29.1 µM [activator, single point] | –
15 | COc1ccccc1C(=O)NCCC(=O)NNC(=O)c1ccccc1O | inconclusive: 5.17 µM [activator, full curve, poor fit] | –
16 | COc1cccc(N2CCN(c3ccc4nnc(CCC(=O)Nc5ccc(OC)c(OC)c5)n4n3)CC2)c1 | inactive | –
17 | Cc1cc2nc(-c3ccccc3)cc(=O)n2[nH]1 | inactive | –
18 | CCN(CC)CCNC(=O)c1cn(CC)c2ccc(S(=O)(=O)N(C)C3CCCCC3)cc2c1=O | inconclusive: 16.4 µM [activator, single point] | –
19 | COCCn1nnnc1CN1CCN2CCCC2C1 (centres undefined) | inconclusive: 29.1 µM [activator, single point] | –
20 | Cc1ccc(C)c2c1cc(C)c1nnc(SCC(=O)NCc3ccc4c(c3)OCO4)n12 | inactive | –
21 | CC(C)NC(=O)C1(N2C(=O)c3ccccc3C2=O)CCCC1 | inconclusive: 29.1 µM [activator, single point] | –
22 | COc1ccc(NC(=O)CN(C)C2CCCCC2)c([N+](=O)[O-])c1 | inactive | –
23 | Cc1cc(S(=O)(=O)N2CCCC2)ccc1OCC(=O)N1CCCCC1 | inactive | –

Row | SMILES | Potency | re-replication activation
24 | O=C(CCc1ccccc1)Nc1ccnn1C1CCN(Cc2ccc(OCCO)cc2)CC1 | inconclusive: 23.1 µM [activator, partial curve, poor fit] | –
25 | CCN(CC)S(=O)(=O)c1cccc(NC(=O)C2SC(=Nc3ccc(C)cc3C)C(C(=O)NCC3CCCO3)=C2N)c1 (centres undefined) | inconclusive: 23.1 µM [activator, single point] | –
26 | C=CC[C@@H](CC(=O)N(CCO)Cc1ccccc1)C(=O)N[C@H](COC(=O)[C@@H](CC=C)CC(=O)OC(C)(C)C)c1ccccc1 | inconclusive: 20.6 µM [activator, partial curve, poor fit] | –
27 | Cc1cc(O)ccc1N/C=C/c1onc(C)c1[N+](=O)[O-] | inactive | –
28 | CCCN1CCN(CCCNC(=O)C(CC)n2nc(C)n3c(cc4occc43)c2=O)CC1 (centres undefined) | inconclusive: 29.1 µM [activator, single point] | –
29 | O=C1NC(=Nc2ccccc2)S/C1=C\C=C\c1ccco1 | inconclusive: 18.4 µM [activator, single point] | –
30 | CCOC(=O)c1cccc(NC(=O)CCc2nnc3ccc(N4CCN(C)CC4)nn23)c1 | inconclusive: 11.6 µM [activator, partial curve] | –
31 | C(=N\NC1=Nc2cccc3cccc1c23)/c1ccccc1 | inactive | –
32 | CCOC(=O)c1c(NC(=O)CNCC(O)CO)sc(C)c1C (centres undefined) | – | inactive: -2.09% [at 9.22 µM]
33 | O=C(O)CCC(=O)OCCN(Cc1ccc(Oc2ccc([N+](=O)[O-])cc2)cc1)C(=O)C(Cl)Cl | inactive | –
34 | NC(=O)c1nsc(C(=O)N(c2ccc(Cl)cc2)C(C(=O)NCC2CCCO2)c2cccs2)c1N (centres undefined) | inconclusive: 32.6 µM [activator, single point] | –
35 | CN1CCN(c2ccccc2NC(=O)COc2ccc(C3CCCCC3)cc2)CC1 | inconclusive: 29.1 µM [activator, single point] | –
36 | Cc1ccc[n+](C(C)C(=O)Nc2ccc([N+](=O)[O-])cc2C)c1 (centres undefined) | inconclusive: 0.231 µM [activator, single point] | –
37 | Fc1ccc(-c2ncc3ccccn23)cc1 | inactive | –
38 | COc1ccc(CC(=O)Nn2c(-c3ccccc3)nc3ccccc3c2=O)cc1 | inactive | –
39 | Cc1ccc(S(=O)(=O)NCC(=O)N(CC(=O)NCC2CCCO2)Cc2ccco2)cc1 (centres undefined) | inactive | –
40 | Cc1cc(N2CCCCC2)nc(NCc2ccccc2)n1 | inconclusive: 23.1 µM [activator, single point] | –
41 | CCOc1ccccc1NC(=O)c1cccc(NC(=O)c2ccco2)c1 | active: 7.31 µM | –
42 | O=S1(=O)CCC(NC(=S)Nc2ccccc2)C1 (centres undefined) | active: 4.11 µM | –
43 | COc1ccc(C)cc1C(=O)CCC(=O)NCCc1ccc(S(N)(=O)=O)cc1 | inactive | –
44 | CCCc1n[nH]c2c1/C(=N/O)CC(c1ccccc1)C2 (centres undefined) | inactive | –
45 | Cc1cc(C(=O)COC(=O)c2ccc3c(c2)NC(=O)CS3)c(C)n1CC1CCCO1 (centres undefined) | inconclusive: 18.4 µM [activator, partial curve, poor fit] | –
46 | O=C(N/N=C/C(Br)=C/c1ccccc1)c1ccccc1[N+](=O)[O-] | inconclusive: 2.91 µM [activator, full curve, poor fit] | –

Row | SMILES | Potency | re-replication activation
47 | CCNc1nc(NCC)n2c(SCC(=O)Nc3cccc(Cl)c3)nnc2n1 | inconclusive: 29.1 µM [activator, single point] | –
48 | Brc1cccc(CSc2nnc(-c3ccncc3)o2)c1 | inconclusive: 20.6 µM [activator, partial curve, poor fit] | –
49 | COc1ccc(/C=C/c2ccc3cccc(O)c3n2)c(OC)c1OC | inconclusive: 0.517 µM [activator, full curve, poor fit] | –
50 | CCn1c(-c2cccc(S(=O)(=O)N3CCCC3)c2)n[nH]c1=S | inactive | –
51 | S=c1[nH]nc(C2CCCCC2)n1/N=C/c1cccs1 | inactive | –
52 | COC(=O)c1ccc(CNC(=O)Cn2cc(C)c(=O)[nH]c2=O)cc1 | inactive | –
53 | CC(C)(C)NC(=O)CN(C(=O)c1snc(C(=O)NC2CCCCC2)c1N)c1ccccc1F | inconclusive: 25.9 µM [activator, single point] | –
54 | COCCCNC(=O)C(=O)Nc1ccc2c(c1)N(S(=O)(=O)c1cccs1)CCC2 | active: 1.03 µM | –
55 | CC(=O)N1CCc2c(sc(NC(=O)Cc3ccc(F)cc3)c2C#N)C1 | inactive | –
56 | COc1ccc(CC2(CO)CCN(Cc3cnc(-c4ccccc4C)nc3)CC2)cc1 | inconclusive: 20.6 µM [activator, single point] | –
57 | Cn1c(N)c(C(=O)COC(=O)c2cc(S(=O)(=O)N3CCOCC3)ccc2F)c(=O)n(C)c1=O | inconclusive: 29.1 µM [activator, single point] | –
58 | CCOC(=O)/C=C/C(=O)OCC(=O)NCc1ccccc1 | inconclusive: 6.51 µM [activator, partial curve, poor fit] | –
59 | O=C(C[n+]1ccc(/C=C/c2ccccc2)cc1)c1ccc2c(c1)OCCO2 | inconclusive: 18.4 µM [activator, partial curve, poor fit] | –
60 | CC[C@@H](C)[C@@H]1CN([C@@H](C)CN2CCC[C@H]2CN2C(N)=NC[C@H]2CC(C)C)C(=N)N1CCCC1CCCC1 | inactive | –
61 | N#CC1=C(N)NC(=S)C(C(N)=O)C1c1ccccc1F (centres undefined) | active: 20.6 µM | –
62 | C=CCOC(=O)C1=C(C)NC(SCC(=O)Nc2nccs2)=C(C#N)C1c1cccs1 (centres undefined) | inconclusive: 5.17 µM [activator, partial curve, poor fit] | –
63 | Cn1cc(CN2CCC(C(=O)Nc3cccc(-c4cccc(F)c4)c3)CC2)cn1 | inconclusive: 29.1 µM [activator, partial curve, poor fit] | –
64 | Cc1cc(NC(=O)CCC(=O)N(c2ccc(F)cc2)C2(C(=O)NC3CCCCC3)CCCC2)no1 | inconclusive: 7.08 µM [activator, partial curve, poor fit] | –
65 | Fc1ccc(NCc2nnc3n2CCCCC3)cc1 | inconclusive: 5.17 µM [activator, single point] | –
66 | COC(=O)[C@]1(Cc2ccccc2)N[C@H](CN(C)C(C)=O)[C@@H]2C(=O)N(C)C(=O)[C@@H]21 | inconclusive: 0.259 µM [activator, partial curve, poor fit] | –
67 | Cc1ccc(C=Nc2ccccc2C(N)=O)cc1 | inconclusive: 23.1 µM [activator, single point] | –
68 | COc1ccccc1C(CNc1ccc(S(=O)(=O)N2CCCC2)cc1[N+](=O)[O-])N(C)C (centres undefined) | inactive | –
69 | Cc1nc2cc(C(F)(F)F)ccc2n1CCNc1nc(-c2ccc(F)cc2)cs1 | inconclusive: 18.4 µM [activator, partial curve, poor fit] | –

Record cards, from the list above. Order of values: Potency	re-replication activation
COc1ccc(NC(=O)CN(C)C2CCCCC2)c([N+](=O)[O-])c1 reads inactive	–
COCCCNC(=O)C(=O)Nc1ccc2c(c1)N(S(=O)(=O)c1cccs1)CCC2 reads active: 1.03 µM	–
C=CC[C@@H](CC(=O)N(CCO)Cc1ccccc1)C(=O)N[C@H](COC(=O)[C@@H](CC=C)CC(=O)OC(C)(C)C)c1ccccc1 reads inconclusive: 20.6 µM [activator, partial curve, poor fit]	–
